Measurements from PubChem BioAssay AID1487 (National Center for Advancing Translational Sciences (NCATS), 2009).
Some of the results follow. The main result of the screen is listed elsewhere. These columns were measured beside it and carry no call. Compounds called inactive in the main read-out are mostly missing here. Words in brackets tell the shape of the fitted curve; partial curves, single points and poor fits give uncertain potencies.

Test: qHTS Assay for Modulators of Lamin A Splicing
Settings: HeLa LMNA splicing GFP/RFP minigene ratio, 48 h
Procedure, shortened: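 Read-out is the ratio of GFP to DsRed2 object intensity, acquired by 488 nm laser-scanning cytometry on HeLa lamin A-EGFP minigene reporter cells. Compound incubation 48 hrs at 37 °C in Opti-MEM with 2% FBS; DMSO 0.5% final.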

[1] = measured here: RFP viability control channel
[2] = measured here: GFP splicing reporter channel

Row | SMILES | AC50 [1] | AC50 [2]
1 | O=S(=O)(NC1CCCCCC1)c1cccc2cccnc12 | 17.8 µM [rising, single point] | 
2 | COc1ccc(S(=O)(=O)NCc2ccc(C(=O)N3CCc4ccccc4C3)cc2)cc1 | 35.5 µM [rising, single point] | 
3 | CCSc1nc(N)c2c3c(sc2n1)CN(C)CC3 | 3.98 µM [rising, single point] | 
4 | COC(=O)c1ccc(-n2c(C)cc(C(=O)CSc3ccc(NC(C)=O)cc3)c2C)cc1 |  | 35.5 µM [rising, single point]
5 | COc1ccc2[nH]cc(CCNc3nc(-c4cccc(C#N)c4)nc4ccccc34)c2c1 | 31.6 µM [falling, single point] | 22.4 µM [falling, single point]
6 | CC(=O)Oc1cc2c(cc1Cl)C(c1cccs1)CC1(CC(C)(C)NC(=S)N1)O2 (centres undefined) |  | 35.5 µM [rising, single point]
7 | O=C(OCC(=O)N1CCN(Cc2ccccc2)CC1)c1ccc(Cl)cc1 | 0.562 µM [rising, single point] | 
8 | NC(N)=Nc1cc2ccccc2c2ccccc12 |  | 11.2 µM [falling, partial curve, poor fit]
9 | COc1ccc(CSc2nc(C)cc(=O)[nH]2)cc1 | 7.08 µM [rising, partial curve] | 8.91 µM [rising, partial curve]
10 | O=C(CCl)NNC(=O)c1c(O)c2ccccc2[nH]c1=O |  | 5.62 µM [rising, partial curve, poor fit]
11 | COc1ccc(Cn2c(SCc3ccc(C(=O)NC4CCCCC4)cc3)nc3cccnc32)cc1 | 35.5 µM [falling, single point] | 35.5 µM [falling, single point]
12 | O=S(=O)(c1ccccc1F)N(Cc1ccco1)Cc1nnc(-c2ccccc2Br)o1 | 35.5 µM [rising, single point] | 
13 | CC1CCc2c(N3CCC(O)CC3)c(F)cc3c(=O)c(C(=O)O)cn1c23 (centres undefined) |  | 22.4 µM [falling, single point]
14 | O=C(Cn1c2[n+](c3ccc(C(F)(F)F)cc31)CCCCC2)Nc1ccccc1 | 0.00501 µM [falling, full curve, poor fit] | 0.00501 µM [falling, full curve, poor fit]
15 | COc1ccc2c(c1)CCCC21SC(NC(C)=O)=NN1C(C)=O (centres undefined) | 10 µM [rising, partial curve] | 
16 | CCC(CC)C(=O)Nc1ccc(C(=O)OCc2cc(=O)n3nc(C4CC4)sc3n2)cc1 | 10 µM [rising, partial curve] | 3.98 µM [falling, full curve, poor fit]
17 | C/C(=N\NC(=O)CSc1nc2ccccc2s1)c1ccco1 | 10 µM [rising, partial curve, poor fit] | 
18 | CN1C(=O)c2ccccc2Sc2ccc(NC(=O)Cc3c(F)cccc3Cl)cc21 | 7.08 µM [falling, partial curve] | 3.16 µM [falling, full curve, poor fit]
19 | CCC(=O)N/N=C(\C)CC(=O)Nc1ccc2c(c1)OCCO2 |  | 7.94 µM [falling, partial curve, poor fit]

A different layout for part of the listing above:

| Row | SMILES | AC50 [1] | AC50 [2] |
| --- | --- | --- | --- |
| 7 | O=C(OCC(=O)N1CCN(Cc2ccccc2)CC1)c1ccc(Cl)cc1 | 0.562 µM [rising, single point] |  |
| 8 | NC(N)=Nc1cc2ccccc2c2ccccc12 |  | 11.2 µM [falling, partial curve, poor fit] |

Individual results from above.
Entry for `CCSc1nc(N)c2c3c(sc2n1)CN(C)CC3` under AC50 [1]: 3.98 µM [rising, single point]
Entry for `CC(=O)Oc1cc2c(cc1Cl)C(c1cccs1)CC1(CC(C)(C)NC(=S)N1)O2` (centres undefined) under AC50 [2]: 35.5 µM [rising, single point]

Further structures:

Row | SMILES | AC50 [1] | AC50 [2]
20 | OCCN=C1CCCc2c1[nH]c1ccc(Br)cc21 | 28.2 µM [falling, single point] | 15.8 µM [falling, single point]
21 | O=C(NCc1nnc2c3ccccc3c(-c3ccccc3)nn12)c1ccc(Cl)cc1 | 22.4 µM [rising, partial curve] | 14.1 µM [rising, partial curve, poor fit]
22 | O=C(NC1CCCCC1)C1c2ccccc2C(=O)N1Cc1ccc2c(c1)OCO2 (centres undefined) |  | 7.08 µM [rising, partial curve, poor fit]
23 | O=[N+]([O-])c1ccc2c(c1)C(N1CCOCC1)/C(=C/COc1ccc(F)cc1)O2 (centres undefined) | 14.1 µM [rising, partial curve, poor fit] | 
24 | CN(CC/C=C1/c2ccccc2CSc2ccccc21)CCCO | 11.2 µM [rising, single point] | 10 µM [rising, partial curve, poor fit]
25 | Cc1ccccc1NC(=O)N1CCCC(c2nc(-c3ccc(F)cc3)no2)C1 (centres undefined) | 14.1 µM [rising, single point] | 
26 | Cc1ccc(Nc2nc(N)c([N+](=O)[O-])c(N3CCOCC3)n2)cc1C | 35.5 µM [rising, single point] | 35.5 µM [rising, single point]
27 | Cc1cccc(-c2nc(SCC(=O)NCC3CCCO3)c3c(=O)n(C)c(=O)n(C)c3n2)c1 (centres undefined) |  | 0.316 µM [rising, partial curve, poor fit]
28 | COc1ccccc1[C@@H]1C(c2cccc(C)c2)=NN(c2ccccc2)[C@H]1C(=O)N1CCOC1=O | 10 µM [falling, partial curve, poor fit] | 11.2 µM [falling, partial curve, poor fit]
29 | COC(=O)c1ccc(N2C(=O)Nc3ccccc3N2O)cc1 | 35.5 µM [falling, single point] | 1.26 µM [falling, partial curve]
30 | COc1ccc(NS(=O)(=O)c2ccc(Oc3ncccn3)cc2)cc1 | 11.2 µM [rising, partial curve] | 
31 | CCOc1cc(/C=C/C(=O)OCC(=O)NC2CCS(=O)(=O)C2)ccc1OCc1ccccc1 (centres undefined) | 2.51 µM [falling, partial curve] | 
32 | NC(=O)CS(=O)(=O)c1nc2ccccc2n1Cc1ccccc1F | 25.1 µM [rising, single point] | 
33 | CC1CCCN(C(=O)c2cccc(S(=O)(=O)Nc3cc(C(F)(F)F)ccc3Cl)c2)C1 (centres undefined) | 35.5 µM [rising, single point] | 35.5 µM [rising, single point]
34 | Cc1ccc(NC(=O)C2CCCN(S(=O)(=O)c3cccc4cccnc34)C2)c(Br)c1 (centres undefined) |  | 3.16 µM [rising, single point]
35 | Cc1nnc(SCc2c(Cl)cccc2[N+](=O)[O-])s1 | 11.2 µM [rising, partial curve, poor fit] | 
36 | C/C=C/C=N/Nc1nc(-c2ccc([N+](=O)[O-])cc2)cs1 | 31.6 µM [rising, single point] | 
37 | Cc1ccccc1NC(=O)CCC(=O)N/N=C/c1cc([N+](=O)[O-])ccc1O | 31.6 µM [rising, single point] | 31.6 µM [rising, single point]
38 | CCOC(=O)N1CCN(CC(=O)Nc2ccc(C)c(Br)c2)CC1 | 35.5 µM [rising, single point] | 

Row | SMILES | AC50 [1] | AC50 [2]
39 | Cn1c(=O)c2c(nc(N3CCOCC3)n2CC(=O)c2ccccc2)n(C)c1=O | 0.01 µM [falling, full curve, poor fit] | 
40 | O=C1C2C3C=CC(C3)C2C(=O)N1c1ccccc1 (centres undefined) |  | 0.501 µM [rising, full curve, poor fit]
41 | Cc1nc2c(Br)cc(Br)cc2cc1O | 22.4 µM [rising, single point] | 
42 | Cc1ccc(-c2csc(NC(=O)c3ccc(-c4ccccc4)cc3)n2)o1 | 6.31 µM [rising, full curve] | 7.94 µM [rising, partial curve, poor fit]
43 | CCCNC(=O)C1CCN(c2ccc(S(=O)(=O)N3CCOCC3)cc2Cl)CC1 | 17.8 µM [rising, single point] | 
44 | Cc1ccc(-n2nnnc2CNC(=O)c2ccc(F)cc2)cc1C |  | 0.0282 µM [rising, full curve, poor fit]
45 | COc1ccccc1-c1nn2c(=O)cc(CN3CCN(S(=O)(=O)c4ccc(C)cc4)CC3)nc2s1 |  | 1.78 µM [rising, partial curve, poor fit]
46 | CCOC(=O)Cc1csc(NC(=O)CSc2ncnc3c2cnn3-c2ccc(OC)cc2)n1 | 20 µM [rising, partial curve] | 14.1 µM [rising, partial curve]
47 | O=C(Nc1ccc(Cl)c(Cl)c1)Oc1ccc(NC(=O)c2ccco2)cc1 | 31.6 µM [rising, single point] | 
48 | Cc1cc(=O)n(-c2ccccc2)n1C |  | 0.316 µM [falling, full curve, poor fit]
49 | C=CCn1c(O)c(N=NC(=S)Nc2ccccc2C)c2cc(S(=O)(=O)N3CCOCC3)ccc21 | 10 µM [rising, partial curve] | 10 µM [rising, partial curve, poor fit]
50 | CCc1ccc(NC(=O)C(=O)NCCN2CCN(Cc3ccc([N+](=O)[O-])cc3)CC2)cc1 | 31.6 µM [rising, single point] | 
51 | CCC(CC)C(=O)Nc1ccc(Sc2ccc([N+](=O)[O-])cc2)cc1 | 0.398 µM [rising, single point] | 
52 | COc1ccc(C(=O)NCC(c2cccs2)S(=O)(=O)c2ccc(F)c(C)c2)cc1 (centres undefined) | 0.0501 µM [falling, full curve, poor fit] | 
53 | COc1cccc(-c2nc(Cc3ccc(OC)c(OC)c3)no2)c1 | 15.8 µM [rising, single point] | 
54 | Cc1cc(NC(=O)CSc2nc(-c3ccco3)cc(C(F)(F)F)n2)no1 | 0.708 µM [rising, full curve, poor fit] | 
55 | COc1cc(Cl)c(C)cc1NC(=O)COc1cc(C)nc(C(C)C)n1 |  | 12.6 µM [rising, single point]
56 | Cc1cc(/C=C2\SC(=S)NC2=O)cc(C)c1O | 22.4 µM [falling, single point] | 35.5 µM [falling, single point]
